Results deposited as PubChem BioAssay AID1671195 (Yale University, 2021)

Test: 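Knockdowns that increase or decrease uptake of fluorescent LDL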 (primary screen)
System: human Huh7 hepatoma cells
Knock-down reagent: siRNA pool against human genes, 18 nM
Duration: about 2 to 2.5 days of knockdown, then 8 h LDL uptake
Conditions: DiI-labelled LDL at 30 µg/ml for 8 h, in lipoprotein-deficient serum medium
Measured: 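Per-cell DiI-LDL intensity by automated imaging; well means scaled to the plate median and given as a robust z-score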
Reading the numbers: robust z-score: higher = more LDL uptake after knockdown
Rule for the call: 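Active when two or more replicates show a robust z-score above 2 or below -2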
Shown is an unselected part of about 22,000 deposited reagents. About 1,510 of them (6.9%) count as active. 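Active includes knockdowns raising or lowering LDL uptake; positive z-scores mean more uptake, negative mean less.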

target gene | robust z-score, replicate 1 | robust z-score, replicate 2 | robust z-score, replicate 3 | call
MAFG (MAF bZIP transcription factor G) | -1.29 | -1.24 | -1.13 | inactive
NCK1 (NCK adaptor protein 1) | -0.375 | -0.789 | -0.825 | inactive
ACTR10 (actin related protein 10) | -1.27 | -1.13 | -0.405 | inactive
ALKBH3 (alkB homolog 3, alpha-ketoglutarate dependent dioxygenase) | -0.363 | -0.569 | -0.66 | inactive
CFAP161 (cilia and flagella associated protein 161) | -0.673 | -0.823 | -0.318 | inactive
KLHL6 (kelch like family member 6) | -1.93 | -2.16 | -2.12 | active
COG8 (component of oligomeric golgi complex 8) | 0.718 | 0.274 | 1.09 | inactive
RNF141 (ring finger protein 141) | 0.89 | 0.164 | 1.4 | inactive
FKBP10 (FKBP prolyl isomerase 10) | 0.0382 | 2.02 | -0.132 | inactive
CD83 (CD83 molecule) | -1.41 | -1.31 | -1.66 | inactive
SEMA5B (semaphorin 5B) | -0.616 | -0.768 | -1.35 | inactive
METTL22 (methyltransferase 22, Kin17 lysine) | 1.34 | 0.47 | 0.618 | inactive
CAPRIN1 (cell cycle associated protein 1) | 0.504 | 2.23 | 1.19 | inactive
SEMA3F (semaphorin 3F) | 0.84 | 0.666 | -0.111 | inactive
CD84 (CD84 molecule) | -1.89 | -1.92 | -2.38 | active
C1QTNF2 (C1q and TNF related 2) | 0.863 | 0.0724 | -0.201 | inactive
VPS13B (vacuolar protein sorting 13 homolog B) | -1.51 | -0.557 | -1.78 | inactive
ITPR1 (inositol 1,4,5-trisphosphate receptor type 1) | 0.802 | 0.305 | 0.345 | inactive
SLC10A3 | 0.714 | 0.724 | 0.297 | inactive
NAMPT (nicotinamide phosphoribosyltransferase) | 3.64 | 3.14 | 2.91 | active
ZNF24 (zinc finger protein 24) | 0.639 | 1.06 | 0.868 | inactive
KCNA4 (potassium voltage-gated channel subfamily A member 4) | -1.27 | -0.869 | -1.7 | inactive
PPP6C (protein phosphatase 6 catalytic subunit) | 1.83 | 0.358 | 1.23 | inactive
BMERB1 (bMERB domain containing 1) | 2.29 | 2.04 | 1.42 | active
AUTS2 (activator of transcription and developmental regulator AUTS2) | -1.22 | -0.238 | 0.644 | inactive
F3 (coagulation factor III, tissue factor) | -1.5 | -1.71 | -1.53 | inactive
GARNL3 (GTPase activating Rap/RanGAP domain like 3) | 0.945 | 0.109 | -0.765 | inactive
FPR1 (formyl peptide receptor 1) | -0.743 | 0.279 | -0.269 | inactive
COMP (cartilage oligomeric matrix protein) | 0.801 | 1.52 | 1.06 | inactive
TNRC6A (trinucleotide repeat containing adaptor 6A) | 0.834 | -0.0783 | 0.302 | inactive
SPTBN4 (spectrin beta, non-erythrocytic 4) | 0.175 | -0.285 | 0.0129 | inactive
VSIG4 (V-set and immunoglobulin domain containing 4) | -0.0224 | -0.528 | 0.169 | inactive
LOC400125 (retired record) | 0.305 | -0.879 | -0.799 | inactive
PRPH2 (peripherin 2) | -0.00362 | 2.27 | 1.32 | inactive
LOC155060 (AI894139 pseudogene) | -0.973 | 0.717 | -1.04 | inactive
GPNMB (glycoprotein nmb) | -1.16 | -0.815 | -1.97 | inactive
TRIM31 (tripartite motif containing 31) | 1.87 | 1.93 | 1.71 | inactive
TWNK (twinkle mtDNA helicase) | 0.32 | -0.0967 | -0.109 | inactive
ZFPM1 (zinc finger protein, FOG family member 1) | 0.491 | -0.295 | -0.124 | inactive
PPP6R3 (protein phosphatase 6 regulatory subunit 3) | 2.42 | 1.94 | 0.797 | active
LVRN (laeverin) | -1.26 | -1.11 | -0.757 | inactive
PRXL2C (peroxiredoxin like 2C) | 0.899 | -0.288 | -0.124 | inactive
MPZ (myelin protein zero) | 1.81 | 1.67 | 2.2 | inactive
OR10G8 (olfactory receptor family 10 subfamily G member 8) | -0.911 | -1.1 | -0.879 | inactive
ADAMTSL5 (ADAMTS like 5) | -0.35 | -0.147 | -0.0523 | inactive
ACADVL (acyl-CoA dehydrogenase very long chain) | -0.961 | -1.32 | -1.18 | inactive

A portion taken from the entries so far, as a working copy:
target gene | robust z-score, replicate 1 | robust z-score, replicate 2 | robust z-score, replicate 3 | call
PRPH2 (peripherin 2) | -0.00362 | 2.27 | 1.32 | inactive
LOC155060 (AI894139 pseudogene) | -0.973 | 0.717 | -1.04 | inactive
GPNMB (glycoprotein nmb) | -1.16 | -0.815 | -1.97 | inactive
TRIM31 (tripartite motif containing 31) | 1.87 | 1.93 | 1.71 | inactive
TWNK (twinkle mtDNA helicase) | 0.32 | -0.0967 | -0.109 | inactive
